Assays:
Details in all cases: read-out: IC50, anti-proliferative
[1] = tested on: H1650 (lung); experiment: Tumor cell growth in culture, H1650; format: cell-based, human
Source text: (§1) The effect of the tricylic (dibenzazapine) antidepressant, chloripramine on growth of certain tumor cell lines measured in cell culture.

[2] = tested on: MiaPaca2 (pancreatic); experiment: Tumor cell growth in culture, MiaPaca2; format: cell-based
Source text: as §1

[3] = tested on: ASPC1 (pancreatic); experiment: Tumor cell growth in culture, ASPC1; format: cell-based
Source text: as §1

[4] = tested on: Panc1 (pancreatic); experiment: Tumor cell growth in culture, Panc1; format: cell-based
Source text: as §1

## CN(C)CCCN1c2ccccc2CCc2ccc(Cl)cc21 [Chlorimpramine]
[1]
  IC50: ~40 µM
[2]
  IC50: 17 µM
[3]
  IC50: 23 µM
[4]
  IC50: 16 µM

From patent publication US9494572B2, “Method and compositions for treating cancer and related methods” (Icahn School of Medicine at Mount Sinai, priority 2011, dated 2016)
